{"sequences": {"note": "Protein sequences, listed by entry. Tags and fused reporters are not part of them. Residues count along the entry.", "UniProt Q99IB8, residues 1977-2442": "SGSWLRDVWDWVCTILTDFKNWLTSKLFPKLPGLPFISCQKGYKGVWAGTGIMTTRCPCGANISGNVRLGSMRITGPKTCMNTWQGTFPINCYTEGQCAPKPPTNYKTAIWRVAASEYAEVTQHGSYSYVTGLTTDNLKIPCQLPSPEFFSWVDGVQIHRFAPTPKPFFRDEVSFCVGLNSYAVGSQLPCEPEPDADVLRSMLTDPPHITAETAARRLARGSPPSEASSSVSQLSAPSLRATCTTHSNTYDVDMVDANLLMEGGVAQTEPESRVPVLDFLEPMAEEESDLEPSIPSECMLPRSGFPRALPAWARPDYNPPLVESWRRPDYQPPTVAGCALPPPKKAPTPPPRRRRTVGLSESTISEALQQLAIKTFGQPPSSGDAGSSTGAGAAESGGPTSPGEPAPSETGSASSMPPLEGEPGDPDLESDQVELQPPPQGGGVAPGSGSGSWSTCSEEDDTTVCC"}, "source": "paper PMC5533930", "key": {"[1]": {"biological_target": "hCKα-Flag (hCKα tagged with a Flag epitope at its C terminus) (human) (UniProt P35790)", "assay": "co-IP; lysates of transfected T7/Huh7 (or T7-control shRNA/Huh7) cells in Tris-HCl pH 7.4, 150 mM NaCl, 1% CHAPS; 1 μg antibody on protein A Mag Sepharose beads, lysate 4°C 6 h, 5 washes in PBS, immunoblot; cells treated with vehicle, PAO (5 μM), CK37 (100 μM) or PI4KIIIα siRNA in some panels"}, "[2]": {"biological_target": "HCV nonstructural protein 5A (NS5A) expressed from pTM-NS5A (hepatitis C virus (strain not stated)) (UniProt Q99IB8)", "assay": "co-IP; lysates of transfected T7/Huh7 (or T7-control shRNA/Huh7) cells in Tris-HCl pH 7.4, 150 mM NaCl, 1% CHAPS; 1 μg antibody on protein A Mag Sepharose beads, lysate 4°C 6 h, 5 washes in PBS, immunoblot; cells treated with vehicle, PAO (5 μM), CK37 (100 μM) or PI4KIIIα siRNA in some panels"}, "[3]": {"biological_target": "HA-PI4KIIIα (phosphatidylinositol-4-kinase IIIα with an HA tag at its N terminus) (UniProt P42356)", "assay": "co-IP; lysates of transfected T7/Huh7 (or T7-control shRNA/Huh7) cells in Tris-HCl pH 7.4, 150 mM NaCl, 1% CHAPS; 1 μg antibody on protein A Mag Sepharose beads, lysate 4°C 6 h, 5 washes in PBS, immunoblot; cells treated with vehicle, PAO (5 μM), CK37 (100 μM) or PI4KIIIα siRNA in some panels"}, "[4]": {"biological_target": "human choline kinase-α (hCKα), endogenous (human (endogenous in Huh7)) (UniProt P35790)", "assay": "co-IP; lysates of transfected T7/Huh7 (or T7-control shRNA/Huh7) cells in Tris-HCl pH 7.4, 150 mM NaCl, 1% CHAPS; 1 μg antibody on protein A Mag Sepharose beads, lysate 4°C 6 h, 5 washes in PBS, immunoblot; cells treated with vehicle, PAO (5 μM), CK37 (100 μM) or PI4KIIIα siRNA in some panels"}, "[5]": {"biological_target": "D288A mutant hCKα-R (human) (UniProt P35790)", "assay": "co-IP; lysates of transfected T7/Huh7 (or T7-control shRNA/Huh7) cells in Tris-HCl pH 7.4, 150 mM NaCl, 1% CHAPS; 1 μg antibody on protein A Mag Sepharose beads, lysate 4°C 6 h, 5 washes in PBS, immunoblot; cells treated with vehicle, PAO (5 μM), CK37 (100 μM) or PI4KIIIα siRNA in some panels"}, "wild-type hCKα-R (human)": {"biological_target": "wild-type hCKα-R (human) (UniProt P35790)", "assay": "co-IP; lysates of transfected T7/Huh7 (or T7-control shRNA/Huh7) cells in Tris-HCl pH 7.4, 150 mM NaCl, 1% CHAPS; 1 μg antibody on protein A Mag Sepharose beads, lysate 4°C 6 h, 5 washes in PBS, immunoblot; cells treated with vehicle, PAO (5 μM), CK37 (100 μM) or PI4KIIIα siRNA in some panels"}, "[6]": {"biological_target": "phosphatidylinositol-4-kinase IIIα (PI4KIIIα), endogenous (human (endogenous in Huh7)) (UniProt P42356)", "assay": "co-IP; lysates of HCVcc-infected Huh7 cells; rabbit anti-PI4KIIIα or mouse anti-NS5A against isotype control IgG; immunoblot"}}, "note": "These are yes or no findings as the source states them, for the method shown. Binding seen in cells or lysates may run through a third protein. Some results given as binding are weak or reduced against the parent protein; the word gives no strength.", "data": [{"substance": "HCV nonstructural protein 5A (NS5A) expressed from pTM-NS5A (from UniProt Q99IB8 1977-2442)", "values": [{"measurement": "binding", "setting": "[1]", "result": "binds"}]}, {"substance": "hCKα-Flag (hCKα tagged with a Flag epitope at its C terminus) (from UniProt P35790-2 1-439) (enzyme)", "values": [{"measurement": "binding", "setting": "[2]", "result": "binds"}, {"measurement": "binding", "setting": "[3]", "result": "binds"}]}, {"substance": "HA-PI4KIIIα (phosphatidylinositol-4-kinase IIIα with an HA tag at its N terminus) (from UniProt P42356 1-2102) (enzyme)", "values": [{"measurement": "binding", "setting": "[4]", "result": "binds"}, {"measurement": "binding", "setting": "[5]", "result": "binds"}, {"measurement": "binding", "setting": "wild-type hCKα-R (human)", "result": "binds"}, {"measurement": "binding", "setting": "[1]", "result": "binds"}]}, {"substance": "HCV nonstructural protein 5A (NS5A) expressed from pTM-NS3–5B (from UniProt Q99IB8 1977-2442)", "values": [{"measurement": "binding", "setting": "[4]", "result": "binds"}, {"measurement": "binding", "setting": "[1]", "result": "binds"}]}, {"substance": "human choline kinase-α (hCKα), endogenous (from UniProt P35790 1-457) (enzyme)", "values": [{"measurement": "binding", "setting": "[3]", "result": "binds"}, {"measurement": "binding", "setting": "[6]", "result": "binds"}]}]}
